## Primary screen of a compound library

The chains behind the UniProt entries cited, without tags or fusion partners. Residues count along the entry.
UniProt P9WNZ1, whole entry: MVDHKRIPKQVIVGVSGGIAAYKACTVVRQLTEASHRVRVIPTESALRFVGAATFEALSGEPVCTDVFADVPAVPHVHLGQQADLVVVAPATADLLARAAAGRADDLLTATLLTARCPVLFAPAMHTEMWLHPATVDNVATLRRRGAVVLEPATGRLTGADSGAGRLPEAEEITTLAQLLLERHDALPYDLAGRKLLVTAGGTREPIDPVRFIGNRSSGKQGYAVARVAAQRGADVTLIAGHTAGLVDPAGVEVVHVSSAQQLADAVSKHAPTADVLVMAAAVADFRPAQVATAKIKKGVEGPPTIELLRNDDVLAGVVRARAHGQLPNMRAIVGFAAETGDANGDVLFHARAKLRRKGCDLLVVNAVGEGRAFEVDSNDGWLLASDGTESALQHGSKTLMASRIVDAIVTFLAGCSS
UniProt I6X8D2, whole entry: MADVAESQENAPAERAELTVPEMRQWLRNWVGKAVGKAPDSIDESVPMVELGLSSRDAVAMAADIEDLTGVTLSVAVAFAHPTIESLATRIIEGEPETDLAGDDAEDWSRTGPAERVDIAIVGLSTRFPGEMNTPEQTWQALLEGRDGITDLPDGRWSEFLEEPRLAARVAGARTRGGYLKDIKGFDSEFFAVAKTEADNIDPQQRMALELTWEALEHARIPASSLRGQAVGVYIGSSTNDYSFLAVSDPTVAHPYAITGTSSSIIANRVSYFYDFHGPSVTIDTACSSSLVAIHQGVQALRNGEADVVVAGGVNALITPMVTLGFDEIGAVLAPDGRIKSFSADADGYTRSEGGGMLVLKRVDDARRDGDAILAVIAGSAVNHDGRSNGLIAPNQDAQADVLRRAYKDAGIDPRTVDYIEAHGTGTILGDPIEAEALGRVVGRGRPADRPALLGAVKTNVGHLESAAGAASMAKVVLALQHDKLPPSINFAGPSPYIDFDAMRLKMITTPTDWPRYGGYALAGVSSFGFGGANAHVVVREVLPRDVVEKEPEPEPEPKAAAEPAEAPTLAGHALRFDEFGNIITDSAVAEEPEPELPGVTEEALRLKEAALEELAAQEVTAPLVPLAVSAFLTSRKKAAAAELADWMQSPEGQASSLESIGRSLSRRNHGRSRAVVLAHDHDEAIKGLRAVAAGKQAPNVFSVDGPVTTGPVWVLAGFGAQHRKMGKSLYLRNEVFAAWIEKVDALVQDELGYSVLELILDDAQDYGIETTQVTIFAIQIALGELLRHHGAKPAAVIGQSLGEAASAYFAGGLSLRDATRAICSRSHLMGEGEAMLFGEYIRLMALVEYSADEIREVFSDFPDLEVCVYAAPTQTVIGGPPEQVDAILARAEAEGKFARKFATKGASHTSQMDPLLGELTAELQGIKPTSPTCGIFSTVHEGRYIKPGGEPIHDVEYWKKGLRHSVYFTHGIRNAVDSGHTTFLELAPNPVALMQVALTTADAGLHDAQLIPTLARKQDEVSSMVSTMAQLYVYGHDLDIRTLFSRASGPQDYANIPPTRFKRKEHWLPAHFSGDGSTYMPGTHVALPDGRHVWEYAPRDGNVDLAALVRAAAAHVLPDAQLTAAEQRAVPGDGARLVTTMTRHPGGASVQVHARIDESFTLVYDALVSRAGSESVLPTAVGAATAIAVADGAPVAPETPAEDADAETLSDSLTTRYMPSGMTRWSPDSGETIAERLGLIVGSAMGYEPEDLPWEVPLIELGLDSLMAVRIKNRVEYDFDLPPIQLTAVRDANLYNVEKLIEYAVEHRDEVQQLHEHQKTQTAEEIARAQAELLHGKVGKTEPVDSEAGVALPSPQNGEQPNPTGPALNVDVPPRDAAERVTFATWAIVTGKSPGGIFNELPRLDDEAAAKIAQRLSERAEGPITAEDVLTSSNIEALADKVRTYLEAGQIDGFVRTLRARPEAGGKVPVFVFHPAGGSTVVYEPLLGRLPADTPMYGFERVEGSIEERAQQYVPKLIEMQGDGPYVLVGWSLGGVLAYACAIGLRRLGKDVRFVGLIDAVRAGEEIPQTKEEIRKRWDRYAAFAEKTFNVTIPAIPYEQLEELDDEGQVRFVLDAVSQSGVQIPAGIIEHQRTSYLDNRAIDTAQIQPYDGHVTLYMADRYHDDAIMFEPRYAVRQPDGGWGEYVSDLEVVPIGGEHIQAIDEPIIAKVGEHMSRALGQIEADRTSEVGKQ
UniProt P9WPC5, whole entry: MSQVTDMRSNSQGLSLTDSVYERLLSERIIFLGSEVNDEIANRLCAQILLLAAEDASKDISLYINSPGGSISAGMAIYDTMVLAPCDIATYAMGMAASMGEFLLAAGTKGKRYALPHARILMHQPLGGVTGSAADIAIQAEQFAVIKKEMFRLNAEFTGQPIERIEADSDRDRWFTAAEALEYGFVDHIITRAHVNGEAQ
UniProt P9WPC3, whole entry partner: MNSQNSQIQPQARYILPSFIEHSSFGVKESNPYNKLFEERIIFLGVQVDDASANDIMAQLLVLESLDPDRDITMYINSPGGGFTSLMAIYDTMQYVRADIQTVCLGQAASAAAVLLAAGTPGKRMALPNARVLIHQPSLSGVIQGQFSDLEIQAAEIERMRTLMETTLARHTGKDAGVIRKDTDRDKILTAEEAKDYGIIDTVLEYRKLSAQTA
UniProt A4I591, 1-473: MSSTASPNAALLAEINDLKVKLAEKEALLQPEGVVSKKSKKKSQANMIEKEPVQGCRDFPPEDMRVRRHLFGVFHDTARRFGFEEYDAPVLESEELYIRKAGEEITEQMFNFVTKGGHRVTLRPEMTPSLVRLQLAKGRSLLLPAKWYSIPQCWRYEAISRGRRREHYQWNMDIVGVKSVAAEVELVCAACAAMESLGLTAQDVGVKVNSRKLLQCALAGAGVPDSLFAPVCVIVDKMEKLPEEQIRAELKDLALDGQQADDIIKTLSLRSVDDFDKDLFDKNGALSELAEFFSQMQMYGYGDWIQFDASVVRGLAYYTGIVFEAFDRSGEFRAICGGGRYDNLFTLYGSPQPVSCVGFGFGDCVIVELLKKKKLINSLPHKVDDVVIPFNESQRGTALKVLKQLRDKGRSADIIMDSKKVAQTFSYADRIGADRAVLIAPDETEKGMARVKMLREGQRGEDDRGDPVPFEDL
UniProt P9WFT3, whole entry: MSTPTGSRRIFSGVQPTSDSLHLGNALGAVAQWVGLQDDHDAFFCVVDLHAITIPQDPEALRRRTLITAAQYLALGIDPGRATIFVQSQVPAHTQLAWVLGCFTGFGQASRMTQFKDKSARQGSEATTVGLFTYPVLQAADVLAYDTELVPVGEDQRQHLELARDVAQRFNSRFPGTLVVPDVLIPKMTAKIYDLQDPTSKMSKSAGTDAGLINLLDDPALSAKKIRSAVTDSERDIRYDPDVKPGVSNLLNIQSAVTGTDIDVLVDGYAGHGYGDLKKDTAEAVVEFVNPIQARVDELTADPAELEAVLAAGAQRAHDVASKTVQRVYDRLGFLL

The filed quantity is “Percent Effect” (%).
The controls that fix the scale are not given in the record; negative values are as filed.
The compounds are a random part of those screened.
Two or more numbers in one place are separate tests of the same structure; such repeats can differ widely.
A dash means the value is not listed here; it may have been measured.

CoaBC: 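Enzyme assay of CoaBC with a phosphate dye (Biomol Green) read at 650 nm. Target: Coenzyme A biosynthesis protein CoaBC, Mycobacterium tuberculosis (UniProt P9WNZ1). Compounds at 30 µM. Higher reads as stronger inhibition, judged from the few compounds that gave an IC50. Most strong results did not repeat in a second test. Size under these conditions: about 67,000 compounds, about 40 of them at 50% or above in at least one test.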
Pks13 thioesterase: 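Enzyme assay of the thioesterase domain of polyketide synthase 13; the read-out is not stated. Target: Polyketide synthase Pks13, Mycobacterium tuberculosis (UniProt I6X8D2). Concentration: 30 µM. Higher reads as stronger inhibition (inferred from which compounds were picked for retests). Of about 67,000 compounds tested this way, about 300 (0.46%) reached 50% or more in at least one test.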
ClpP1P2: 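ClpP1P2, Mycobacterium tuberculosis (UniProt P9WPC5 and UniProt P9WPC3). Protease assay of ClpP1P2, read by the AMC dye that it sets free. Compounds at 50 µM. Direction is inferred from only a few compounds that gave an IC50; most scored high, so higher reads as stronger inhibition. Most other retested compounds had strongly negative values. Of about 69,000 compounds tested this way, about 10 (0.015%) reached 50% or more in at least one test.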
LiHisRS: 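Enzyme assay of histidyl-tRNA synthetase; the read-out is not stated. Target: Histidine-tRNA ligase, Leishmania infantum (UniProt A4I591). Concentration: 30 µM. Higher reads as stronger inhibition (inferred: compounds with an IC50 in retests scored well above the rest). The assay is labelled LdHisRS but filed under L. infantum. Size under these conditions: about 69,000 compounds, about 410 of them at 50% or above in at least one test.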
MtTrpRS: 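Enzyme assay of tryptophanyl-tRNA synthetase; the read-out is not stated. Target: Tryptophan-tRNA ligase, Mycobacterium tuberculosis (UniProt P9WFT3). Concentration: 10 µM. Higher most likely means stronger inhibition; the record gives no direction and few retests gave an IC50. Of about 65,000 compounds tested this way, about 64 (0.098%) reached 50% or more in at least one test.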

Compound	CoaBC	Pks13 thioesterase	ClpP1P2	LiHisRS	MtTrpRS
CCC(C)Oc1ccc(CNCCNC(C)=O)cc1Cl (centres undefined)	-7.443%	-2.644%	-8.445%	15.29%	0.9084%
COc1cc(N2C[C@H]3OCC[C@H]3[C@H](C(=O)NC3CC3)C2)ncn1	8.387%	-22.18%	8.972%	13.33%	1.727%
Cc1cc(NC(=O)Cn2nc(C)c(C#N)c2N)ccc1Br	-0.8547%	-30.64%	-9.843%	10.26%	-5.782%
O=C1CCc2cc(S(=O)(=O)NCc3cc4n(n3)CCNC4)ccc2N1	4.177%	1.303%	-7.027%	18.25%	3.361%
Cc1cnc(CNc2ccc(C(=O)NCc3ccco3)cc2C)o1	-0.6483%	21.8%	-3.546%	-4.762%	6.56%
CC(C)N(C(=O)Cn1c(-c2ccco2)cc2cccnc21)C(C)C	15.07%	27.03%	-64.3%	20.13%	-4.903%
Cc1ccc(C(CNCc2cccn2C)N2CCOCC2)s1 (centres undefined)	15.08%	-14.08%	-8.783%	18.75%	-4.193%
Cc1cc(C)n(CC2CCCN2CC(=O)N(C)Cc2ccc(C)o2)n1 (centres undefined)	-5.006%	-11.4%	-8.72%	18.42%	9.463%
CC(=O)N1CCCC1c1nccc(C)n1 (centres undefined)	2.591%	-19.08%	10.02%	5.109%	0.8811%
CC(C)c1nc2n(n1)CC(NCc1nnc(-c3ccco3)o1)CC2 (centres undefined)	0.1186%	-9.188%	10.05%	30.95%	2.269%
Cc1ncsc1C(=O)NC1CCN(CCC(N)=O)CC1	2.41%	-15.67%	-9.537%	10.96%	0.5596%
CN(CCc1ccccc1)c1cnn(CC2COCCO2)c(=O)c1 (centres undefined)	4.654%	-15.57%	-2.976%	23.01%	-3.401%
CNC(=O)CCc1cc(C2CCNCC2)nc(C)n1	0.9685%	12.33%	11.81%	18.56%	-
O=S1(=O)COCCN1CCCOc1ccc(F)cc1	-0.3628%	-4.279%	19.25%	-1.613%	3.306%
O=C(N1CCOCC1)N1CCC(Nc2ccncn2)CC1	4.8%	-34.52%	0.6913%	-20.51%	5.277%
O=C1CC2(CCCCN2C(=O)c2ccco2)CN1c1cccnc1 (centres undefined)	-5.806%	26.41%	-4.674%	-8.333%	1.766%
c1ccc(-n2ncc(CNC3CCc4ncnn4C3)n2)cc1 (centres undefined)	-3.368%	0.5299%	2.848%	-19.15%	2.153%
CC(=O)N1CCO[C@@H]2CN(S(=O)(=O)c3ccc(F)cc3)CC[C@@H]2C1	3.415%	-7.245%	1.658%	16.98%	-
Cc1ccc2c(ccn2CCC(=O)N2CCC(C(N)=O)CC2)c1	2.557%	-26.4%	3.072%	11.65%	0.201%
CCc1ccc(CN2C[C@@H](C)C3(CCN(CC(=O)N(C)C)C3=O)C2)o1 (some centres undefined)	3.475%	-22.02%	-2.317%	15.38%	-5.233%
Cc1ccc(C2CSCCN2C(=O)C2=CCCC2)o1 (centres undefined)	-11.01%	-13.91%	-11.48%	22.64%	3.521%
Cc1nc(C2CCCN(C(=O)c3cc(C)sc3C)C2)no1 (centres undefined)	4.167%	-32.31%	-9.76%	12.33%	3.263%
NC(=O)c1cc2c(nc1Oc1cccc(CN3CCCC3)c1F)CCC2	28.83% & 9.524%	-20.3%	-7.506%	19.67%	-3.173%
Cc1nnsc1CN(C)C(=O)c1ccc(CSc2nnc[nH]2)o1	4.348%	-81.4%	-7.343%	10.83%	-2.171%
CCn1cnnc1CNC(=O)N1CCC(O)CC1	10.81%	-18.82%	-8.926%	7.826%	-7.412%
CS(=O)(=O)Nc1cccc(CNC(=O)CCNC(=O)c2cccs2)c1	-0.1209%	-6.441%	6.698%	14.52%	-4.224%
CCC(CO)NCc1ccc(-c2ccc(F)c(Cl)c2)o1 (centres undefined)	-1.119%	0.4828%	7.57%	26.44%	3.018%
COc1cccc(C2(CNC(C)c3nnc(C)o3)CCCC2)c1 (centres undefined)	0.2296%	-8.381%	-4.548%	0%	-4.827%
Cc1cc(C(=O)NS(=O)(=O)Cc2ccon2)c(C)n1C(C)C	1.229%	-	-8.931%	16.67%	-2.614%
Nc1nc2c(c(N3CCC(CN4CCCC4=O)CC3)n1)CCNCC2	-	-46.02%	0.3354%	20%	3.818%
Cc1ccc2nc(C(=O)N3C[C@@H](C(=O)O)[C@H](c4ccccc4)C3)cn2c1	2.479%	2.881%	-2.518%	12.24%	8.811%
OC(CNCCn1cccn1)COc1cccc(C(F)(F)F)c1 (centres undefined)	-15.97%	-33.5%	2.192%	17.95%	-2.058%
Cc1ccc(C)c(NC(=O)C(C)N2CCCN(c3nccs3)CC2)c1 (centres undefined)	18.32%	-14.39%	-10.02%	16.98%	3.627%
O=C(c1c[nH]c(=O)c(Cl)c1)N1C[C@@H]2CC[C@H](C1)N(CC1CCC1)C2	11.15%	17.2%	21.68%	9.574%	-1.237%
Cc1c(NCc2ccccc2C#N)cccc1S(=O)(=O)NC1CC1	0.1209%	32.08%	11.74%	9.677%	1.102%
CN1CCOC(C(=O)N2CCOC3(CCCC3)C2)C1 (centres undefined)	6.087%	-21.86%	-5.768%	2.618%	0.867%
CC(O)CN1CCN(C(=O)CN(C)c2ccc(Cl)cn2)CC1 (centres undefined)	-5.757%	-19.52%	7.576%	17.31%	-5.805%
O=C(NCC1CC1)C1=NOC2(CCN(S(=O)(=O)c3ccc(F)cc3)C2)C1 (centres undefined)	-0.8403%	-2.173%	-2.95%	1.818%	-1.046%
CCC(=O)NC(CC(C)C)c1cccs1 (centres undefined)	13.48%	-40.27%	2.048%	5.759%	4.721%
CCCc1nc(CN2CCOC(Cn3cncn3)C2)no1 (centres undefined)	-2.089%	-10.4%	12.82%	16.22%	-1.657%
CCn1ncc2c1CCCC2NCc1cscn1 (centres undefined)	-	-41.67%	-12.7%	20.83%	9.907%
CCOCCCn1c(NC(=O)c2cnc(C)s2)nc2ccccc21	-2.867%	8.77%	-8.981%	19.23%	-3.336%
CC[C@@H]1N(Cc2nccs2)CCC[C@]12CCC(=O)N2CCOC	-20.25%	-12.99%	-12.37%	9.722%	-4.265%
N[C@@H](C(=O)N1CCN(c2ccccc2Cl)C(=O)C1)c1ccccc1	0.7444%	-15.13%	-2.789%	21.28%	5.013%
CCc1nc(C2CCCN(C(=O)CN(C)S(C)(=O)=O)C2)no1 (centres undefined)	7.949%	-27.06%	3.194%	18.67%	-1.798%
CC(=O)NCC(=O)NCC1Cn2nnc(-c3cccc(F)c3)c2CO1 (centres undefined)	2.28%	0.8576%	-5.02%	20%	-1.953%
COCC(=O)Nc1cnc(N2CCOCC2)nc1	-1.129%	-15.97%	-10.12%	10.17%	0.07886%
COc1cn(CC(N)=O)c(CSc2nccc(C)n2)cc1=O	-1.908%	5.695%	6.881%	21.95%	1.633%
Cn1cc(Cl)c(CN(Cc2ccsc2)CC2CCCO2)n1 (centres undefined)	1.517%	-7.004%	-10.91%	3.333%	0.4989%
Oc1nc(C2CCN(Cc3ccccn3)CC2)cc2ccccc12	3.325%	-26.66%	28.08%	-2.817%	12.98%
CCCN(CCC)CCNc1c(-c2ccccc2)c(=O)c1=O	2.503%	-21.27%	-1.087%	17.81%	2.545%
CCS(=O)(=O)N1C[C@H]2CN(Cc3cccc(F)c3)C(=O)[C@H]2C1	-7.246%	-23.74%	-10.26%	8.219%	2.375%
CCOc1cccc(COC(=O)c2ccc(Cl)cn2)n1	-	-32.05%	-6.507%	14.17%	-1.651%
Cc1ccc(CCCC(=O)N2CCC(CS(N)(=O)=O)CC2)s1	4.81%	7.584%	-3.984%	21.05%	8.793%
CC(=O)N1CCOC2(CCCN(C(=O)CCN3CCCCC3)C2)C1 (centres undefined)	3.562%	-19.23%	-4.061%	11.65%	-3.961%
COc1ccc2nnc(CCCC(=O)NCCc3ccccn3)n2n1	1.816%	-2.152%	-14.04%	11.96%	1.4%
O=C(Nc1ccccc1OCC(F)F)N[C@@H]1C=C[C@H](CO)C1	0.9724%	-0.7246%	-5.226%	4.762%	0.5623%
COc1nn(C)c2c1CCCN(C(=O)c1ccc3ccccc3n1)C2	-2.689%	22.63%	-11.84%	0%	7.969%
Cc1noc(C)c1CSC1CCCN(c2cnn(C)c2)C1=O (centres undefined)	-0.1266%	-9.835%	-9.307%	30%	1.898%
CC(C)(O)C1CCCN(C(=O)Nc2nc(-c3ccccc3)ns2)C1 (centres undefined)	11.68%	-5.979%	-4.714%	-9.211%	-3.483%
O=C(CSC1CCc2ccccc2NC1=O)NCc1ccccc1 (centres undefined)	-2.043%	-15.42%	-2.909%	23.38%	-0.7417%
Cc1nn(C)c(C)c1C1CCCN1Cc1nnc(C2CC2)n1C (centres undefined)	-8.032%	-20.68%	-2.732%	10.45%	5.732%

Some entries from above, unchanged:

- O=C(NCC1CC1)C1=NOC2(CCN(S(=O)(=O)c3ccc(F)cc3)C2)C1 (centres undefined) : CoaBC: -0.8403%; Pks13 thioesterase: -2.173%; ClpP1P2: -2.95%; LiHisRS: 1.818%; MtTrpRS: -1.046%
- CCn1ncc2c1CCCC2NCc1cscn1 (centres undefined) : Pks13 thioesterase: -41.67%; ClpP1P2: -12.7%; LiHisRS: 20.83%; MtTrpRS: 9.907%
- COCC(=O)Nc1cnc(N2CCOCC2)nc1 : CoaBC: -1.129%; Pks13 thioesterase: -15.97%; ClpP1P2: -10.12%; LiHisRS: 10.17%; MtTrpRS: 0.07886%
- CCc1nc(C2CCCN(C(=O)CN(C)S(C)(=O)=O)C2)no1 (centres undefined) : CoaBC: 7.949%; Pks13 thioesterase: -27.06%; ClpP1P2: 3.194%; LiHisRS: 18.67%; MtTrpRS: -1.798%
- Cc1cnc(CNc2ccc(C(=O)NCc3ccco3)cc2C)o1 : CoaBC: -0.6483%; Pks13 thioesterase: 21.8%; ClpP1P2: -3.546%; LiHisRS: -4.762%; MtTrpRS: 6.56%

Data taken from ChEMBL document CHEMBL3988442, “University of Dundee, Small-Polar-MMV Screening Library” (2021).